Measured values as given in PMC8565353.
Results are given in words; binding and its absence hold for the method and conditions named. Binding seen in cells or lysates may run through a third protein. Here binding means that the protein was enriched with, or labelled near, the bait; the list need not be complete.

Target: FTO, N-terminal BirA* fusion (human) (UniProt Q9C0B1)
Assay: proximity labelling; BioID: BirA*-fused bait induced with 200 ng/ml dox in stable 293T cells, 50 μM biotin for 24 h, streptavidin bead purification of biotinylated proteins, LC-MS/MS; hits filtered by Limma (>4-fold, adjusted P < 0.01) and SAINT (score >0.74) against BirA* and NLS-BirA* controls

Row | Binder | binding
1 | U5 snRNP 52K protein (CD2BP2) (protein, UniProt O95400 1-341) MPKRKVTFQGVGDEEDEDEIIVPKKKLVDPVAGSGGPGSRFKGKHSLDSDEEEDDDDGGSSKYDILASEDVEGQEAATLPSEGGVRITPFNLQEEMEEGHFDADGNYFLNRDAQIRDSWLDNIDWVKIRERPPGQRQASDSEEEDSLGQTSMSAQALLEGLLELLLPRETVAGALRRLGARGGGKGRKGPGQPSSPQRLDRLSGLADQMVARGNLGVYQETRERLAMRLKGLGCQTLGPHNPTPPPSLDMFAEELAEEELETPTPTQRGEAESRGDGLVDVMWEYKWENTGDAELYGPFTSAQMQTWVSEGYFPDGVYCRKLDPPGGQFYNSKRIDFDLYT | binds
2 | DHX16 helicase (enzyme, UniProt O60231 1-1041) MATPAGLERWVQDELHSVLGLSERHVAQFLIGTAQRCTSAEEFVQRLRDTDTLDLSGPARDFALRLWNKVPRKAVVEKPARAAEREARALLEKNRSYRLLEDSEESSEETVSRAGSSLQKKRKKRKHLRKKREEEEEEEASEKGKKKTGGSKQQTEKPESEDEWERTERERLQDLEERDAFAERVRQRDKDRTRNVLERSDKKAYEEAQKRLKMAEEDRKAMVPELRKKSRREYLAKREREKLEDLEAELADEEFLFGDVELSRHERQELKYKRRVRDLAREYRAAGEQEKLEATNRYHMPKETRGQPARAVDLVEEESGAPGEEQRRWEEARLGAASLKFGARDAASQEPKYQLVLEEEETIEFVRATQLQGDEEPSAPPTSTQAQQKESIQAVRRSLPVFPFREELLAAIANHQVLIIEGETGSGKTTQIPQYLFEEGYTNKGMKIACTQPRRVAAMSVAARVAREMGVKLGNEVGYSIRFEDCTSERTVLRYMTDGMLLREFLSEPDLASYSVVMVDEAHERTLHTDILFGLIKDVARFRPELKVLVASATMDTARFSTFFDDAPVFRIPGRRFPVDIFYTKAPEADYLEACVVSVLQIHVTQPPGDILVFLTGQEEIEAACEMLQDRCRRLGSKIRELLVLPIYANLPSDMQARIFQPTPPGARKVVVATNIAETSLTIEGIIYVLDPGFCKQKSYNPRTGMESLTVTPCSKASANQRAGRAGRVAAGKCFRLYTAWAYQHELEETTVPEIQRTSLGNVVLLLKSLGIHDLMHFDFLDPPPYETLLLALEQLYALGALNHLGELTTSGRKMAELPVDPMLSKMILASEKYSCSEEILTVAAMLSVNNSIFYRPKDKVVHADNARVNFFLPGGDHLVLLNVYTQWAESGYSSQWCYENFVQFRSMRRARDVREQLEGLLERVEVGLSSCQGDYIRVRKAITAGYFYHTARLTRSGYRTVKQQQTVFIHPNSSLFEQQPRWLLYHELVLTTKEFMRQVLEIESSWLLEVAPHYYKAKELEDPHAKKMPKKIGKTREELG | binds
3 | YJU2 (CCDC94) (protein, UniProt Q9BW85 1-323) MSERKVLNKYYPPDFDPSKIPKLKLPKDRQYVVRLMAPFNMRCKTCGEYIYKGKKFNARKETVQNEVYLGLPIFRFYIKCTRCLAEITFKTDPENTDYTMEHGATRNFQAEKLLEEEEKRVQKEREDEELNNPMKVLENRTKDSKLEMEVLENLQELKDLNQRQAHVDFEAMLRQHRLSEEERRRQQQEEDEQETAALLEEARKRRLLEDSDSEDEAAPSPLQPALRPNPTAILDEAPKPKRKVEVWEQSVGSLGSRPPLSRLVVVKKAKADPDCSNGQPQAAPTPGAPQNRKEANPTPLTPGASSLSQLGAYLDSDDSNGSN | binds
4 | CRNKL1 (protein, UniProt Q9BZJ0 1-848) MTATVENLTFQKDTLGNAVDKNTSRLELRSYSLAGRHGSTEPLVLAWSSQFRRLTWGCALDALHRSPCVAASQHGVTHLIRSSRTPHSTRCRKEDAQPGHHGNGAASVTAQARGQRSVLQVPLPVPRSCLFSESFVVSVSSQSRFLASVPGTGVQRSTAADMAASTAAGKQRIPKVAKVKNKAPAEVQITAEQLLREAKERELELLPPPPQQKITDEEELNDYKLRKRKTFEDNIRKNRTVISNWIKYAQWEESLKEIQRARSIYERALDVDYRNITLWLKYAEMEMKNRQVNHARNIWDRAITTLPRVNQFWYKYTYMEEMLGNVAGARQVFERWMEWQPEEQAWHSYINFELRYKEVDRARTIYERFVLVHPDVKNWIKYARFEEKHAYFAHARKVYERAVEFFGDEHMDEHLYVAFAKFEENQKEFERVRVIYKYALDRISKQDAQELFKNYTIFEKKFGDRRGIEDIIVSKRRFQYEEEVKANPHNYDAWFDYLRLVESDAEAEAVREVYERAIANVPPIQEKRHWKRYIYLWINYALYEELEAKDPERTRQVYQASLELIPHKKFTFAKMWILYAQFEIRQKNLSLARRALGTSIGKCPKNKLFKVYIELELQLREFDRCRKLYEKFLEFGPENCTSWIKFAELETILGDIDRARAIYELAISQPRLDMPEVLWKSYIDFEIEQEETERTRNLYRRLLQRTQHVKVWISFAQFELSSGKEGSLTKCRQIYEEANKTMRNCEEKEERLMLLESWRSFEEEFGTASDKERVDKLMPEKVKKRRKVQTDDGSDAGWEEYFDYIFPEDAANQPNLKLLAMAKLWKKQQQEKEDAEHHPDEDVDESES | binds
5 | CWF19L2 (protein, UniProt Q2TBE0 1-894) MATSMAAASGRFESAKSIEERKEQTRNARAEVLRQAKANFEKEERRKELKRLRGEDTWMLPDVNERIEQFSQEHSVKKKKKKDKHSKKAKKEKKKKSKKQKYEKNNESSDSSSSSEDEWVEAVPSQTPDKEKAWKVKDEKSGKDDTQIIKRDEWMTVDFMSVKTVSSSSLKAEKETMRKIEQEKNQALEQSKLMERELNPYWKDGGTGLPPEDCSVSSITKVSVVEDGGLSWLRKSYLRMKEQAEKQSRNFEDIVAERYGSMEIFQSKLEDAEKAASTKEDYRRERWRKPTYSDKAQNCQESRESDLVKYGNSSRDRYATTDTAKNSNNEKFIGDEKDKRPGSLETCRRESNPRQNQEFSFGNLRAKFLRPSDDEELSFHSKGRKFEPLSSSSALVAQGSLCSGFRKPTKNSEERLTSWSRSDGRGDKKHSNQKPSETSTDEHQHVPEDPREKSQDEVLRDDPPKKEHLRDTKSTFAGSPERESIHILSVDEKNKLGAKIIKAEMMGNMELAEQLKVQLEKANKFKETITQIPKKSGVENEDQQEVILVRTDQSGRVWPVNTPGKSLESQGGRRKRQMVSTHEERERVRYFHDDDNLSLNDLVKNEKMGTAENQNKLFMRMASKFMGKTDGDYYTLDDMFVSKAAERERLGEEEENQRKKAIAEHRSLAAQMEKCLYCFDSSQFPKHLIVAIGVKVYLCLPNVRSLTEGHCLIVPLQHHRAATLLDEDIWEEIQMFRKSLVKMFEDKGLDCIFLETNMSMKKQYHMVYECIPLPKEVGDMAPIYFKKAIMESDEEWSMNKKLIDLSSKDIRKSVPRGLPYFSVDFGLHGGFAHVIEDQHKFPHYFGKEIIGGMLDIEPRLWRKGIRESFEDQRKKALQFAQWWKPYDFTKSKNY | binds
6 | SNPC4 (protein, UniProt Q5SXM2 1-1469) MDVDAEREKITQEIKELERILDPGSSGSHVEISESSLESDSEADSLPSEDLDPADPPISEEERWGEASNDEDDPKDKTLPEDPETCLQLNMVYQEVIQEKLAEANLLLAQNREQQEELMRDLAGSKGTKVKDGKSLPPSTYMGHFMKPYFKDKVTGVGPPANEDTREKAAQGIKAFEELLVTKWKNWEKALLRKSVVSDRLQRLLQPKLLKLEYLHQKQSKVSSELERQALEKQGREAEKEIQDINQLPEEALLGNRLDSHDWEKISNINFEGSRSAEEIRKFWQNSEHPSINKQEWSREEEERLQAIAAAHGHLEWQKIAEELGTSRSAFQCLQKFQQHNKALKRKEWTEEEDRMLTQLVQEMRVGSHIPYRRIVYYMEGRDSMQLIYRWTKSLDPGLKKGYWAPEEDAKLLQAVAKYGEQDWFKIREEVPGRSDAQCRDRYLRRLHFSLKKGRWNLKEEEQLIELIEKYGVGHWAKIASELPHRSGSQCLSKWKIMMGKKQGLRRRRRRARHSVRWSSTSSSGSSSGSSGGSSSSSSSSSEEDEPEQAQAGEGDRALLSPQYMVPDMDLWVPARQSTSQPWRGGAGAWLGGPAASLSPPKGSSASQGGSKEASTTAAAPGEETSPVQVPARAHGPVPRSAQASHSADTRPAGAEKQALEGGRRLLTVPVETVLRVLRANTAARSCTQKEQLRQPPLPTSSPGVSSGDSVARSHVQWLRHRATQSGQRRWRHALHRRLLNRRLLLAVTPWVGDVVVPCTQASQRPAVVQTQADGLREQLQQARLASTPVFTLFTQLFHIDTAGCLEVVRERKALPPRLPQAGARDPPVHLLQASSSAQSTPGHLFPNVPAQEASKSASHKGSRRLASSRVERTLPQASLLASTGPRPKPKTVSELLQEKRLQEARAREATRGPVVLPSQLLVSSSVILQPPLPHTPHGRPAPGPTVLNVPLSGPGAPAAAKPGTSGSWQEAGTSAKDKRLSTMQALPLAPVFSEAEGTAPAASQAPALGPGQISVSCPESGLGQSQAPAASRKQGLPEAPPFLPAAPSPTPLPVQPLSLTHIGGPHVATSVPLPVTWVLTAQGLLPVPVPAVVSLPRPAGTPGPAGLLATLLPPLTETRAAQGPRAPALSSSWQPPANMNREPEPSCRTDTPAPPTHALSQSPAEADGSVAFVPGEAQVAREIPEPRTSSHADPPEAEPPWSGRLPAFGGVIPATEPRGTPGSPSGTQEPRGPLGLEKLPLRQPGPEKGALDLEKPPLPQPGPEKGALDLGLLSQEGEAATQQWLGGQRGVRVPLLGSRLPYQPPALCSLRALSGLLLHKKALEHKATSLVVGGEAERPAGALQASLGLVRGQLQDNPAYLLLRARFLAAFTLPALLATLAPQGVRTTLSVPSRVGSESEDEDLLSELELADRDGQPGCTTATCPIQGAPDSGKCSASSCLDTSNDPDDLDVLRTRHARHTRKRRRLV | binds
7 | guanine dimethyltransferase TRM1 (enzyme, UniProt Q9NXH9 24-659) FEWQSPGLPNTAAMENGTGPYGEERPREVQETTVTEGAAKIAFPSANEVFYNPVQEFNRDLTCAVITEFARIQLGAKGIQIKVPGEKDTQKVVVDLSEQEEEKVELKESENLASGDQPRTAAVGEICEEGLHVLEGLAASGLRSIRFALEVPGLRSVVANDASTRAVDLIRRNVQLNDVAHLVQPSQADARMLMYQHQRVSERFDVIDLDPYGSPATFLDAAVQAVSEGGLLCVTCTDMAVLAGNSGETCYSKYGAMALKSRACHEMALRIVLHSLDLRANCYQRFVVPLLSISADFYVRVFVRVFTGQAKVKASASKQALVFQCVGCGAFHLQRLGKASGVPSGRAKFSAACGPPVTPECEHCGQRHQLGGPMWAEPIHDLDFVGRVLEAVSANPGRFHTSERIRGVLSVITEELPDVPLYYTLDQLSSTIHCNTPSLLQLRSALLHADFRVSLSHACKNAVKTDAPASALWDIMRCWEKECPVKRERLSETSPAFRILSVEPRLQANFTIREDANPSSRQRGLKRFQANPEANWGPRPRARPGGKAADEAMEERRRLLQNKRKEPPEDVAQRAARLKTFPCKRFKEGTCQRGDQCCYSHSPPTPRVSADAAPDCPETSNQTPPGPGAAAGPGID | binds
8 | E3 ubiquitin-protein ligase RNF8 (enzyme, UniProt O76064 1-485) MGEPGFFVTGDRAGGRSWCLRRVGMSAGWLLLEDGCEVTVGRGFGVTYQLVSKICPLMISRNHCVLKQNPEGQWTIMDNKSLNGVWLNRARLEPLRVYSIHQGDYIQLGVPLENKENAEYEYEVTEEDWETIYPCLSPKNDQMIEKNKELRTKRKFSLDELAGPGAEGPSNLKSKINKVSCESGQPVKSQGKGEVASTPSDNLDPKLTALEPSKTTGAPIYPGFPKVTEVHHEQKASNSSASQRSLQMFKVTMSRILRLKIQMQEKHEAVMNVKKQTQKGNSKKVVQMEQELQDLQSQLCAEQAQQQARVEQLEKTFQEEEQHLQGLEIAQGEKDLKQQLAQALQEHWALMEELNRSKKDFEAIIQAKNKELEQTKEEKEKMQAQKEEVLSHMNDVLENELQCIICSEYFIEAVTLNCAHSFCSYCINEWMKRKIECPICRKDIKSKTYSLVLDNCINKMVNNLSSEVKERRIVLIRERKAKRLF | binds
